Data on 2 molecules can be found in publication PMC12407099.

Protein sequences, listed by entry. Tags and fused reporters are not part of them.
UniProt Q12888: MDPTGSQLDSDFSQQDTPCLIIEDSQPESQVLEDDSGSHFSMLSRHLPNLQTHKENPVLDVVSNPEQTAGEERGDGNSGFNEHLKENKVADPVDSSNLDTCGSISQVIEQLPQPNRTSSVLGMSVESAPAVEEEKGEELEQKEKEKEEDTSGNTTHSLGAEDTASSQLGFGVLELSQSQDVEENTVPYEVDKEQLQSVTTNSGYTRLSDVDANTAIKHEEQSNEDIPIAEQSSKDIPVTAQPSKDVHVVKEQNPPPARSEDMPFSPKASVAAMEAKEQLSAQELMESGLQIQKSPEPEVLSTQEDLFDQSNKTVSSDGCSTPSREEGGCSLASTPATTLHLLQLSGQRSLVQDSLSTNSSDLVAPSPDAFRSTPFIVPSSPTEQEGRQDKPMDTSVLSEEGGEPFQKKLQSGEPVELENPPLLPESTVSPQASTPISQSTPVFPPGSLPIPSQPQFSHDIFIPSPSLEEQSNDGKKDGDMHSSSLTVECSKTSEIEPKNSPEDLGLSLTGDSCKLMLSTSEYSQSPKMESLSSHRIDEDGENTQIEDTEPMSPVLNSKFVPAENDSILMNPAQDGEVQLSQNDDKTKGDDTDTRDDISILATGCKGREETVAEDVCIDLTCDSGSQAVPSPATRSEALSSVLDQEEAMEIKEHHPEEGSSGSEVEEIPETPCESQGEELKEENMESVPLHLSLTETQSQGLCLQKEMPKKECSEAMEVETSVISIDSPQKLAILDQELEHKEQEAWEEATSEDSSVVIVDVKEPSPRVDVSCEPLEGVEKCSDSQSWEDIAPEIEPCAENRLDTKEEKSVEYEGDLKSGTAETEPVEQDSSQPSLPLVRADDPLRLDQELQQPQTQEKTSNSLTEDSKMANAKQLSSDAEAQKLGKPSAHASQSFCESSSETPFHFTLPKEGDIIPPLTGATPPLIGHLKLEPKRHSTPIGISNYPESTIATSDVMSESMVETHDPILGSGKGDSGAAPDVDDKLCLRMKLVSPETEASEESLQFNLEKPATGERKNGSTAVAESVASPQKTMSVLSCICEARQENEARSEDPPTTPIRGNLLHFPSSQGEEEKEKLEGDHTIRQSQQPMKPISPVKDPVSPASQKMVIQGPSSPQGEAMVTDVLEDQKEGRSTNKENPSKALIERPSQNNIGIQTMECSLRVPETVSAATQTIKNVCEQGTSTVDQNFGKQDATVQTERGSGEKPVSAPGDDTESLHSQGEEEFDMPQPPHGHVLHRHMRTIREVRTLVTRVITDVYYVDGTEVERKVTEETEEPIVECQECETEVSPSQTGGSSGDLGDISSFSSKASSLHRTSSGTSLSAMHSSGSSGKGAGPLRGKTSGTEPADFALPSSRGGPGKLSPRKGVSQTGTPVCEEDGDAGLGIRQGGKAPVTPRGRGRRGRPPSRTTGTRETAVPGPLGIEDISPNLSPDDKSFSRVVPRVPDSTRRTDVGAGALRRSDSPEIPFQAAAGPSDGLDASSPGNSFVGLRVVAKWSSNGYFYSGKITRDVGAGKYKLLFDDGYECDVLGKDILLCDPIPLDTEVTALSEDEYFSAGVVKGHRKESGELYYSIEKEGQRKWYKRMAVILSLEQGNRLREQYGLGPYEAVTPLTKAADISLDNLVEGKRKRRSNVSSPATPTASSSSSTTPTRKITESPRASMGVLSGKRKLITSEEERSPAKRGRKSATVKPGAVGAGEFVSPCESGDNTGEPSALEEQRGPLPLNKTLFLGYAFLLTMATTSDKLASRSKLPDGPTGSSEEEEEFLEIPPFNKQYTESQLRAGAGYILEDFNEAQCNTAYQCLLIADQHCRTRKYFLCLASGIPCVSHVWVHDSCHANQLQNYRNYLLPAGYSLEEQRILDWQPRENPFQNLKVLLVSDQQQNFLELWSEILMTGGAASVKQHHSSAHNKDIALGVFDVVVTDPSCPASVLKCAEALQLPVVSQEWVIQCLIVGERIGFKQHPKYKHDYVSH

The target in experiment [1] is T1, WT hnRNPL (heterogeneous ribonucleoprotein L), siRNA-resistant, C-terminal 3× Flag (UniProt Q8R081).
T1 sequence: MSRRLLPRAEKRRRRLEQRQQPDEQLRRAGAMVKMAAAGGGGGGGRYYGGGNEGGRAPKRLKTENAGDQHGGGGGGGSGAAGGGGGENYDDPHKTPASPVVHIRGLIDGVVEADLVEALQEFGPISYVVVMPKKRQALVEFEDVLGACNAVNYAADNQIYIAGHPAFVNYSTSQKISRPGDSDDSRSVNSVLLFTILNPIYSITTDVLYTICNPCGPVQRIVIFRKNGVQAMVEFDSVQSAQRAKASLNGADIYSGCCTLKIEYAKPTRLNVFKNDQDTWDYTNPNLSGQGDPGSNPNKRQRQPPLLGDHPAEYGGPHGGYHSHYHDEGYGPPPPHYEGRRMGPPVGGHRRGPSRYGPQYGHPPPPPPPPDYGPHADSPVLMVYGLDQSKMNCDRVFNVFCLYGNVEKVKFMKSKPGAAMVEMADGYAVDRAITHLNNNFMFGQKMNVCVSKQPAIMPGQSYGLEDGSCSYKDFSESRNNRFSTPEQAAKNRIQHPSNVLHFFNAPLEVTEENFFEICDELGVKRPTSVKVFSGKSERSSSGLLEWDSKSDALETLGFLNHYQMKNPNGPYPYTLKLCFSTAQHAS
The experiment is described as follows: affinity purification with mass spectrometry; Flag-tagged WT and F15 hnRNPL immunoprecipitated from HEK293T lysates with anti-Flag affinity resin; SDS-PAGE, silver staining; gel regions that differed between WT and mutant excised for mass spectrometry.

Experiment [2] deals with T1, WT hnRNPL (heterogeneous ribonucleoprotein L), siRNA-resistant, C-terminal 3× Flag. The experiment is described as above. This is another data set of the same source.

Like-named read-outs stand apart in the source and are kept apart here. No constants are given. Whether binding was seen depends on the method and setting. Binding seen in cells or lysates may run through a third protein. Here binding means that the protein was enriched with, or labelled near, the bait; the list need not be complete. Tags and fused reporters may be left off the sequences shown.

On to 53BP1 (from UniProt Q12888 1-1972), for which the binding result in experiment [1] was “binds”.

B1: CstF64 (polyadenylation/cleavage stimulating factor), endogenous in HEK293T (protein, UniProt P33240 1-577)
chain: MAGLTVRDPAVDRSLRSVFVGNIPYEATEEQLKDIFSEVGPVVSFRLVYDRETGKPKGYGFCEYQDQETALSAMRNLNGREFSGRALRVDNAASEKNKEELKSLGTGAPVIESPYGETISPEDAPESISKAVASLPPEQMFELMKQMKLCVQNSPQEARNMLLQNPQLAYALLQAQVVMRIVDPEIALKILHRQTNIPTLIAGNPQPVHGAGPGSGSNVSMNQQNPQAPQAQSLGGMHVNGAPPLMQASMQGGVPAPGQMPAAVTGPGPGSLAPGGGMQAQVGMPGSGPVSMERGQVPMQDPRAAMQRGSLPANVPTPRGLLGDAPNDPRGGTLLSVTGEVEPRGYLGPPHQGPPMHHVPGHESRGPPPHELRGGPLPEPRPLMAEPRGPMLDQRGPPLDGRGGRDPRGIDARGMEARAMEARGLDARGLEARAMEARAMEARAMEARAMEARAMEVRGMEARGMDTRGPVPGPRGPIPSGMQGPSPINMGAVVPQGSRQVPVMQGTGMQGASIQGGSQPGGFSPGQNQVTPQDHEKAALIMQVLQLTADQIAMLPPEQRQSILILKEQIQKSTGAP
For B1, the binding result in experiment [2] is “binds”.
